Measurements published in PMC8973551.
Results are given in words; binding and its absence hold for the method and conditions named. In cells and extracts the contact can be indirect. Some entries that bind do so weakly or less than the wild type.

The chains behind the UniProt entries cited, without tags or fusion partners.
UniProt O14744: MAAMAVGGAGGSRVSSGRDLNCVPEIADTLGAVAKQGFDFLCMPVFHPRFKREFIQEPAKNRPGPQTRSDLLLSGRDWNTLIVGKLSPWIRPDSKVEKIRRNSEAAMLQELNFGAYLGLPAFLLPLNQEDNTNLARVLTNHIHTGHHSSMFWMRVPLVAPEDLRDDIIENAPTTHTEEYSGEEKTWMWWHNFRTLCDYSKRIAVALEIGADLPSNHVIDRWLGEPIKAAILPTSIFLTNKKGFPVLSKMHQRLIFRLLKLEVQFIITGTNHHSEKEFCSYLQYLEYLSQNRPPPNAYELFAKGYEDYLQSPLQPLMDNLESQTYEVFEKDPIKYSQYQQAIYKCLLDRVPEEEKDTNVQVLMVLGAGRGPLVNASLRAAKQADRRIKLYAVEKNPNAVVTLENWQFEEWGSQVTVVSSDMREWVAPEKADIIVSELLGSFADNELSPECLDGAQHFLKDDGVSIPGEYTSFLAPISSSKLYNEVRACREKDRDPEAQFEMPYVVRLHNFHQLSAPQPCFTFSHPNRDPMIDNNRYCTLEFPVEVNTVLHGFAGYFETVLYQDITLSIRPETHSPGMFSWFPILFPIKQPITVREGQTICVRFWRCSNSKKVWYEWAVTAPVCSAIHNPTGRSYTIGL

Target: T1, splicing factor 3a subunit 3 (SF3A3) (human (endogenous in A549 and H1650)) (UniProt Q12874)
T1 sequence: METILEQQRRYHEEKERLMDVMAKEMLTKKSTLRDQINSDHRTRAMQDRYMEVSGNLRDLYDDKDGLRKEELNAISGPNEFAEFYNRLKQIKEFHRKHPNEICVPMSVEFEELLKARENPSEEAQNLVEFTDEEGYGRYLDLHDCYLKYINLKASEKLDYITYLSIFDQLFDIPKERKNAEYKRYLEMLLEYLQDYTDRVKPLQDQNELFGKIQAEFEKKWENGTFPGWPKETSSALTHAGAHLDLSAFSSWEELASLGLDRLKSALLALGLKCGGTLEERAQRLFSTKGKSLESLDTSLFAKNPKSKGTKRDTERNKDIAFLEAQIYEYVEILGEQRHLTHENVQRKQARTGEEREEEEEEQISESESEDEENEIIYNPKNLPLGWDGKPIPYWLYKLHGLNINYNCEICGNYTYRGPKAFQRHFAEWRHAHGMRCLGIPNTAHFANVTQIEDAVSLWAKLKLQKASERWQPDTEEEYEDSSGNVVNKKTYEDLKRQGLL
Assay: co-IP; lysates of NSCLC cells (A549, H1650) in Pierce IP Lysis Buffer, primary antibody with protein A/G magnetic beads at 4 °C overnight, 6 washes, immunoblot; also done on cells with circSCAP overexpression or SF3A3 siRNA (less complex, put down to the lower SF3A3 level)

binding: binds
Substance: protein arginine methyltransferase 5 (PRMT5) (from UniProt O14744 1-637)
